{"source": "PubChem BioAssay AID1508588 (Peter MacCallum Cancer Centre, 2020)", "test": "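Genome-wide search for knock-downs that heighten vemurafenib action in melanoma cells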 (primary screen)", "system": "human WM266.4 melanoma cells (BRAF V600 mutant)", "knock-down reagent": "siRNA pool against human genes, 40 nM", "duration": "96 h from transfection to read-out", "conditions": "vemurafenib 300 nM (about IC25), added 48 h after transfection, for 48 h; comparison arm got DMSO vehicle only", "read-out": "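Cell gain (DAPI nuclei at end minus before drug, mean of two replicates) and medium lactate by absorbance per cell, both as ratio to non-targeting siRNA, also grouped into fold-change classes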", "scale": "cell gain with vemurafenib: higher = more cell gain than with non-targeting siRNA; lactate per cell with vemurafenib: higher = more lactate made per cell", "rule for the call": "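a knock-down counts as enhancing when its fold-change classes with vehicle and with vemurafenib, taken together, show a stronger drug effect on cell gain or lactate per cell; exact class pairs not stated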", "calls": "active = enhances vemurafenib effect; inactive = no enhancement seen", "note": "In all, the deposit lists about 18,000 reagents; shown is a random part of them. In the full data, 790 (4.4%) were called active. 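Calls rest on a combination of fold-change classes in drug and vehicle arms, not all shown here.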 A number with no mark means an inactive call. Some reagents were tested in more than one well and are listed for each."}
{"gene": "SCMH1 (Scm polycomb group protein homolog 1)", "cell gain with vemurafenib": 0.8, "lactate per cell with vemurafenib": 0.82}
{"gene": "MAP3K19 (mitogen-activated protein kinase kinase kinase 19)", "cell gain with vemurafenib": 0.51, "lactate per cell with vemurafenib": 1.08}
{"gene": "RAVER2 (ribonucleoprotein, PTB binding 2)", "cell gain with vemurafenib": 0.52, "lactate per cell with vemurafenib": 0.4}
{"gene": "TYR (tyrosinase)", "cell gain with vemurafenib": 0.52, "lactate per cell with vemurafenib": 1.27}
{"gene": "SEMA4A (semaphorin 4A)", "cell gain with vemurafenib": 0.86, "lactate per cell with vemurafenib": 0.57}
{"gene": "ZNRF3 (zinc and ring finger 3)", "cell gain with vemurafenib": 0.95, "lactate per cell with vemurafenib": 0.82}
{"gene": "HAL (histidine ammonia-lyase)", "cell gain with vemurafenib": 0.47, "lactate per cell with vemurafenib": 0.88}
{"gene": "FCAMR (Fc alpha and mu receptor)", "cell gain with vemurafenib": 0.84, "lactate per cell with vemurafenib": 1.66}
{"gene": "USP26 (ubiquitin specific peptidase 26)", "cell gain with vemurafenib": 0.66, "lactate per cell with vemurafenib": 1.19}
{"gene": "PDCL3 (phosducin like 3)", "cell gain with vemurafenib": 0.44, "lactate per cell with vemurafenib": 1.29}
{"gene": "PNPO (pyridoxamine 5'-phosphate oxidase)", "cell gain with vemurafenib": 0.8, "lactate per cell with vemurafenib": 1.32}
{"gene": "GABRA5 (gamma-aminobutyric acid type A receptor subunit alpha5)", "cell gain with vemurafenib": 0.4, "lactate per cell with vemurafenib": 0.83}
{"gene": "PDZK1 (PDZ domain containing 1)", "cell gain with vemurafenib": 1.16, "lactate per cell with vemurafenib": 0.36}
{"gene": "MYO7A (myosin VIIA)", "cell gain with vemurafenib": 0.73, "lactate per cell with vemurafenib": 1.15}
{"gene": "SPATS2 (spermatogenesis associated serine rich 2)", "cell gain with vemurafenib": 0.57, "lactate per cell with vemurafenib": 1.21}
{"gene": "CFAP126 (cilia and flagella associated protein 126)", "cell gain with vemurafenib": 0.18, "lactate per cell with vemurafenib": 1.31}
{"gene": "DNAH1 (dynein axonemal heavy chain 1)", "cell gain with vemurafenib": 0.55, "lactate per cell with vemurafenib": 1.31}
{"gene": "FUT4 (fucosyltransferase 4)", "cell gain with vemurafenib": 0.54, "lactate per cell with vemurafenib": 1.24}
{"gene": "F11 (coagulation factor XI)", "cell gain with vemurafenib": 0.49, "lactate per cell with vemurafenib": 0.86}
{"gene": "HILPDA (hypoxia inducible lipid droplet associated)", "cell gain with vemurafenib": 0.75, "lactate per cell with vemurafenib": 0.98}
{"gene": "NDUFB3 (NADH:ubiquinone oxidoreductase subunit B3)", "cell gain with vemurafenib": 0.43, "lactate per cell with vemurafenib": 1.44}
{"gene": "NECTIN3 (nectin cell adhesion molecule 3)", "cell gain with vemurafenib": 0.6, "lactate per cell with vemurafenib": 1.37}
{"gene": "TMEM141 (transmembrane protein 141)", "cell gain with vemurafenib": 0.04, "lactate per cell with vemurafenib": 0.8}
{"gene": "ACVRL1 (activin A receptor like type 1)", "cell gain with vemurafenib": 0.28, "lactate per cell with vemurafenib": 2.32}
{"gene": "SLN (sarcolipin)", "cell gain with vemurafenib": 1, "lactate per cell with vemurafenib": 0.76}
{"gene": "NIPSNAP1 (nipsnap homolog 1)", "cell gain with vemurafenib": 1.16, "lactate per cell with vemurafenib": 0.88}
{"gene": "OXTR (oxytocin receptor)", "cell gain with vemurafenib": 0.95, "lactate per cell with vemurafenib": 0.74}
{"gene": "DNAJC17 (DnaJ heat shock protein family (Hsp40) member C17)", "cell gain with vemurafenib": 0.35, "lactate per cell with vemurafenib": 1.16}
{"gene": "CLDN18 (claudin 18)", "cell gain with vemurafenib": 0.73, "lactate per cell with vemurafenib": 0.36}
{"gene": "THEM4 (thioesterase superfamily member 4)", "cell gain with vemurafenib": 1.04, "lactate per cell with vemurafenib": 0.59}
{"gene": "IGF2BP3 (insulin like growth factor 2 mRNA binding protein 3)", "cell gain with vemurafenib": 0.68, "lactate per cell with vemurafenib": 0.38}
{"gene": "DEFB114 (defensin beta 114)", "cell gain with vemurafenib": 0.57, "lactate per cell with vemurafenib": 2.39}
{"gene": "NOVA1 (NOVA alternative splicing regulator 1)", "cell gain with vemurafenib": 0.67, "lactate per cell with vemurafenib": 0.96}
{"gene": "ATP5PD (ATP synthase peripheral stalk subunit d)", "cell gain with vemurafenib": "1.01 (active)", "lactate per cell with vemurafenib": 0.39}
{"gene": "MKRN3 (makorin ring finger protein 3)", "cell gain with vemurafenib": 0.99, "lactate per cell with vemurafenib": 0.66}
{"gene": "UCP3 (uncoupling protein 3)", "cell gain with vemurafenib": 0.9, "lactate per cell with vemurafenib": 1.11}
{"gene": "EHD2 (EH domain containing 2)", "cell gain with vemurafenib": 1.32, "lactate per cell with vemurafenib": 0.68}
{"gene": "SUPT4H1 (SPT4 homolog, DSIF elongation factor subunit)", "cell gain with vemurafenib": 0.4, "lactate per cell with vemurafenib": 1.08}
{"gene": "CRISPLD1 (cysteine rich secretory protein LCCL domain containing 1)", "cell gain with vemurafenib": 1.13, "lactate per cell with vemurafenib": 1.1}
{"gene": "TC2N (tandem C2 domains, nuclear)", "cell gain with vemurafenib": 0.97, "lactate per cell with vemurafenib": 0.7}
{"gene": "CPNE5 (copine 5)", "cell gain with vemurafenib": 0.44, "lactate per cell with vemurafenib": 1.18}
{"gene": "CBR3 (carbonyl reductase 3)", "cell gain with vemurafenib": 0.71, "lactate per cell with vemurafenib": 0.84}
{"gene": "NEO1 (neogenin 1)", "cell gain with vemurafenib": -0.01, "lactate per cell with vemurafenib": 2.97}
{"gene": "DLAT (dihydrolipoamide S-acetyltransferase)", "cell gain with vemurafenib": 0.94, "lactate per cell with vemurafenib": 0.2}
{"gene": "EPN2 (epsin 2)", "cell gain with vemurafenib": 1.03, "lactate per cell with vemurafenib": 0.97}
{"gene": "FAM117A (family with sequence similarity 117 member A)", "cell gain with vemurafenib": 0.59, "lactate per cell with vemurafenib": 0.68}
{"gene": "OLFML1 (olfactomedin like 1)", "cell gain with vemurafenib": 0.52, "lactate per cell with vemurafenib": 0.54}
{"gene": "KIF2A (kinesin family member 2A)", "cell gain with vemurafenib": 0.63, "lactate per cell with vemurafenib": 1.2}
{"gene": "F8A1 (coagulation factor VIII associated 1)", "cell gain with vemurafenib": 0.63, "lactate per cell with vemurafenib": 1.66}
{"gene": "ZNF184 (zinc finger protein 184)", "cell gain with vemurafenib": 0.55, "lactate per cell with vemurafenib": 0.58}
{"gene": "KCNH2 (potassium voltage-gated channel subfamily H member 2)", "cell gain with vemurafenib": 0.21, "lactate per cell with vemurafenib": 0.84}
{"gene": "KCNH2 (potassium voltage-gated channel subfamily H member 2)", "cell gain with vemurafenib": 0.4, "lactate per cell with vemurafenib": 1.4}

An excerpt from above, limited to “lactate per cell with vemurafenib”:
DLAT (dihydrolipoamide S-acetyltransferase): 0.2
EPN2 (epsin 2): 0.97
FAM117A (family with sequence similarity 117 member A): 0.68
OLFML1 (olfactomedin like 1): 0.54
KIF2A (kinesin family member 2A): 1.2
F8A1 (coagulation factor VIII associated 1): 1.66
ZNF184 (zinc finger protein 184): 0.58
